Experimental data from paper PMC4501687, “Design of a Selective Substrate and Activity Based Probe for Human Neutrophil Serine Protease 4” (PLoS ONE, 2015).

Sequences of proteins named here, by UniProt entry; tags and fusion partners are left off. Residues count along the entry.
UniProt P08311, 21-255 limits assumed: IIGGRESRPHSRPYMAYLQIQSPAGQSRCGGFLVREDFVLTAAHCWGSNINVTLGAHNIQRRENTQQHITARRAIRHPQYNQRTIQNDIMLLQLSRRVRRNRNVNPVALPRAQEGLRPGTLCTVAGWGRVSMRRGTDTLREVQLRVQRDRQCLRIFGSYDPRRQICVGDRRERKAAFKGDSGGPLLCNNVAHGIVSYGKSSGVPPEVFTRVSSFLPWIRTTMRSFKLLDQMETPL

Target: CatG (Homo sapiens, UniProt P08311)
Assay: Fluorogenic substrate hydrolysis kinetics with CatG
Type: biochemical
Conditions: Table 2; hydrolysis by CatG; enzyme could not be saturated, so no separate kcat and Km; listed as Ac-hCha-Phe(guan)-Oic-Arg-ACC
Description: Kinetic parameters of selected substrates were determined in 50 mM Hepes, 0.1 M NaCl, 0.1%TRITON-X100, pH 7.45 assay buffer on 96 wells Corning plates. Measurements were performed for a minimum of 20 minutes. The excitation wavelength was 355 nm, and the emission wavelength was 460 nm, with a cutoff of 455 nm. Human NE and CatG were purchased from Biocentrum, Krakow, Poland and PR3 from Athens Research Technology, Athens, Georgia, USA. Recombinant human NSP4 was expressed and purified as previously described.
In addition to NSP4, neutrophils contain three other structurally-related serine proteases NE, PR3 and CatG [1] that are also stored in azurophilic granules. To estimate the degree of eventual cross reactivity of the optimal substrate with these three serine proteases, we measured kinetic parameters for each enzyme on PK421. […] In the case of CatG we were unable to saturate the enzyme and therefore could not calculate the individual values of kcat and Km. Lack of measurable activity toward PR3 and NE made this sequence an ideal candidate for the design of an activity based probe.

In the case of `CC(=O)N[C@@H](CCC1CCCCC1)C(=O)N[C@@H](Cc1ccc(NC(=N)N)cc1)C(=O)N1C2CCCCC2C[C@H]1C(=O)N[C@@H](CCCNC(=N)N)C(=O)Nc1ccc2c(CC(N)=O)cc(=O)oc2c1` (stereo partly shown), the kcat/Km is reported as “only very weakly hydrolyzed and 477±0.9 M^-1s^-1”.

A number of entries come with more than one value. This list holds those alone. There may be further records. Values given together differ, and nothing given here explains why; dose, time, organism, isomer or construct need not be as stated for each record.
